In PubChem BioAssay AID186 (DTP/NCI, 2004):
Shown are survivors of the treated group in tumour-free mice. Survivors were counted at the toxicity check, usually on the fifth day, unless a day is given; later deaths do not show. Schedules are NCI's codes, read here as Q, the interval in days (D) or hours (H), X, the number of doses.

System: B6D2F1 mice, nontumored toxicity test, survival
Assay: NCI In Vivo Anticancer Drug Screen. Data for tumor model Nontumored Animals (Toxicity Test) in B6D2F1 (BDF1) mice
Details: vehicle: water

In the case of `OC(CCl)CN1CC[N+]2(CC1)CC[N+]1(CCN(CC(O)CCl)CC1)CC2` (stereo not given), the survivor count (dose: 4.0 mg/kg/injection, schedule: Q03HX024 (ip)) is reported as 8 of 8, the survivor count (dose: 8.0 mg/kg/injection, schedule: Q03HX016 (ip)) is reported as 8 of 8 and the survivor count (dose: 8.0 mg/kg/injection, schedule: Q03HX024 (ip)) is reported as 8 of 8. The survivor count (dose: 16.0 mg/kg/injection, schedule: Q01DX009 (ip)) was 8 of 8, the survivor count (dose: 16.0 mg/kg/injection, schedule: Q03HX008 (ip)) was 8 of 8 and the survivor count (dose: 16.0 mg/kg/injection, schedule: Q03HX016 (ip)) was 7 of 7. For the same compound, the survivor count (dose: 16.0 mg/kg/injection, schedule: Q03HX024 (ip)) was 8 of 8, the survivor count (dose: 32.0 mg/kg/injection, schedule: Q01DX005 (ip)) was 8 of 8 and the survivor count (dose: 32.0 mg/kg/injection, schedule: Q01DX009 (ip)) was 8 of 8. For the same compound, the survivor count (dose: 32.0 mg/kg/injection, schedule: Q03HX008 (ip)) was 8 of 8, the survivor count (dose: 32.0 mg/kg/injection, schedule: Q03HX016 (ip)) was 8 of 8 and the survivor count (dose: 32.0 mg/kg/injection, schedule: Q03HX024 (ip)) was 8 of 8. For the same compound, the survivor count (dose: 32.0 mg/kg/injection, schedule: Q04DX003 (ip)) was 8 of 8, the survivor count (dose: 64.0 mg/kg/injection, schedule: Q01DX001 (ip)) was 8 of 8 and the survivor count (dose: 64.0 mg/kg/injection, schedule: Q01DX001 (oral)) was 8 of 8. The survivor count (dose: 64.0 mg/kg/injection, schedule: Q01DX005 (ip)) was 8 of 8, the survivor count (dose: 64.0 mg/kg/injection, schedule: Q01DX009 (ip)) was 8 of 8 and the survivor count (dose: 64.0 mg/kg/injection, schedule: Q01DX009 (oral)) was 8 of 8. For the same compound, the survivor count (dose: 64.0 mg/kg/injection, schedule: Q03HX008 (ip)) was 8 of 8, the survivor count (dose: 64.0 mg/kg/injection, schedule: Q03HX016 (ip)) was 8 of 8 and the survivor count (dose: 64.0 mg/kg/injection, schedule: Q03HX024 (ip)) was 8 of 8. The survivor count (dose: 64.0 mg/kg/injection, schedule: Q04DX003 (ip)) was 8 of 8, the survivor count (dose: 64.0 mg/kg/injection, schedule: Q08DX002 (ip)) was 8 of 8 and the survivor count (dose: 128.0 mg/kg/injection, schedule: Q01DX001 (ip)) was 8 of 8. For the same compound, the survivor count (dose: 128.0 mg/kg/injection, schedule: Q01DX001 (oral)) was 8 of 8, the survivor count (dose: 128.0 mg/kg/injection, schedule: Q01DX005 (ip)) was 8 of 8 and the survivor count (dose: 128.0 mg/kg/injection, schedule: Q01DX009 (ip)) was 8 of 8. For the same compound, the survivor count (dose: 128.0 mg/kg/injection, schedule: Q01DX009 (oral)) was 8 of 8, the survivor count (dose: 128.0 mg/kg/injection, schedule: Q03HX008 (ip)) was 8 of 8 and the survivor count (dose: 128.0 mg/kg/injection, schedule: Q03HX016 (ip)) was 8 of 8. The survivor count (dose: 128.0 mg/kg/injection, schedule: Q04DX003 (ip)) was 8 of 8, the survivor count (dose: 128.0 mg/kg/injection, schedule: Q08DX002 (ip)) was 8 of 8 and the survivor count (dose: 256.0 mg/kg/injection, schedule: Q01DX001 (ip)) was 8 of 8. The survivor count (dose: 256.0 mg/kg/injection, schedule: Q01DX001 (oral)) was 8 of 8, the survivor count (dose: 256.0 mg/kg/injection, schedule: Q01DX005 (ip)) was 8 of 8 and the survivor count (dose: 256.0 mg/kg/injection, schedule: Q01DX009 (ip)) was 8 of 8. The survivor count (dose: 256.0 mg/kg/injection, schedule: Q01DX009 (oral)) was 8 of 8, the survivor count (dose: 256.0 mg/kg/injection, schedule: Q03HX008 (ip)) was 0 of 8 and the survivor count (dose: 256.0 mg/kg/injection, schedule: Q04DX003 (ip)) was 8 of 8. The survivor count (dose: 256.0 mg/kg/injection, schedule: Q08DX002 (ip)) was 8 of 8, the survivor count (dose: 512.0 mg/kg/injection, schedule: Q01DX001 (ip)) was 8 of 8 and the survivor count (dose: 512.0 mg/kg/injection, schedule: Q01DX001 (oral)) was 8 of 8. The survivor count (dose: 512.0 mg/kg/injection, schedule: Q01DX005 (ip)) was 4 of 8, the survivor count (dose: 512.0 mg/kg/injection, schedule: Q01DX009 (oral)) was 8 of 8 and the survivor count (dose: 512.0 mg/kg/injection, schedule: Q04DX003 (ip)) was 8 of 8. For the same compound, the survivor count (dose: 512.0 mg/kg/injection, schedule: Q08DX002 (ip)) was 8 of 8, the survivor count (dose: 1024.0 mg/kg/injection, schedule: Q01DX001 (ip)) was 7 of 8 and the survivor count (dose: 1024.0 mg/kg/injection, schedule: Q01DX001 (oral)) was 8 of 8. The survivor count (dose: 1024.0 mg/kg/injection, schedule: Q01DX009 (oral)) was 8 of 8 and the survivor count (dose: 1024.0 mg/kg/injection, schedule: Q08DX002 (ip)) was 8 of 8.
